From PMC9070667, “Molecular insights into RNA recognition and gene regulation by the TRIM-NHL protein Mei-P26”
Positions count from the first letter of the chain named. For some assays here: No signal at the amounts used counts as a negative. For some assays here: At least one verdict was read from the data and is not stated in words by the source. Tags and fusion partners may be left off the protein sequences shown. For some assays here: Weaker means in comparison with the reference protein, sequence or condition of that experiment. For some assays here: For at least one entry, the source does not settle the construct or the ends of the probe.

Tests used:
[1] = target: T1, Mei-P26 NHL wt (Drosophila melanogaster (Oregon-R)) (UniProt M9PH32); assay: MST; details: MST: 20 mM Hepes/KOH pH 7.5, 100 mM NaCl, 5 mM MgCl2, 5 mM DTT, 0.0125% Tween 20, 25 C (Brat: 20 mM Tris 8.0, 150 mM NaCl, 1 mM MgCl2, 5 mM DTT, 0.0125% Tween 20). EMSA; recombinant protein; residues 908-1206; protein details: GST removed by TEV; label: Cy5
T1 sequence (looked up): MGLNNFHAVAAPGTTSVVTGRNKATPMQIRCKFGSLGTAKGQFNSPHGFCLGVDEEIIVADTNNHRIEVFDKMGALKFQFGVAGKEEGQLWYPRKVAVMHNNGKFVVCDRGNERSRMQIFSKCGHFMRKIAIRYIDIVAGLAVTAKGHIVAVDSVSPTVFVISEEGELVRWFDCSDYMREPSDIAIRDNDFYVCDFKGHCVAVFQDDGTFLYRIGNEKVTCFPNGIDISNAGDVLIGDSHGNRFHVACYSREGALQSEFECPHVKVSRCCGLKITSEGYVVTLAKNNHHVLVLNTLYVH

[2] = target: T2, Mei-P26 NHL KR K1172A,R1175A (Drosophila melanogaster (Oregon-R)) (UniProt M9PH32); assay: MST; details: MST: 20 mM Hepes/KOH pH 7.5, 100 mM NaCl, 5 mM MgCl2, 5 mM DTT, 0.0125% Tween 20, 25 C (Brat: 20 mM Tris 8.0, 150 mM NaCl, 1 mM MgCl2, 5 mM DTT, 0.0125% Tween 20). EMSA; recombinant protein; residues 908-1206; protein details: GST removed by TEV; label: Cy5
T2 sequence (looked up): T1 sequence (looked up) with K265A, R268A

[3] = target: T3, Brat NHL (Drosophila melanogaster) (UniProt Q8MQJ9); assay: MST; details: MST: 20 mM Hepes/KOH pH 7.5, 100 mM NaCl, 5 mM MgCl2, 5 mM DTT, 0.0125% Tween 20, 25 C (Brat: 20 mM Tris 8.0, 150 mM NaCl, 1 mM MgCl2, 5 mM DTT, 0.0125% Tween 20). EMSA; recombinant protein; label: Cy5
T3 sequence (looked up, limits assumed): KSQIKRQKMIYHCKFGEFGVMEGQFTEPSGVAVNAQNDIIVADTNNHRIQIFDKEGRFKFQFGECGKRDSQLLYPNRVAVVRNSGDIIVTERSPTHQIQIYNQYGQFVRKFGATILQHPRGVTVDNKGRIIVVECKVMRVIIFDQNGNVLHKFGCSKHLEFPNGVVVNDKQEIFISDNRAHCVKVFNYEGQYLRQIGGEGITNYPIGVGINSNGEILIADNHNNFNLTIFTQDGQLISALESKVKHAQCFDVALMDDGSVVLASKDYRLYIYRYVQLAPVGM

[4] = target: T4, Mei-P26 NHL R1175A (Drosophila melanogaster (Oregon-R)) (UniProt M9PH32); assay: MST; details: MST: 20 mM Hepes/KOH pH 7.5, 100 mM NaCl, 5 mM MgCl2, 5 mM DTT, 0.0125% Tween 20, 25 C (Brat: 20 mM Tris 8.0, 150 mM NaCl, 1 mM MgCl2, 5 mM DTT, 0.0125% Tween 20). EMSA; recombinant protein; residues 908-1206; protein details: GST removed by TEV; label: Cy5
T4 sequence (looked up): T1 sequence (looked up) with R268A

[5] = target: T5, Mei-P26 NHL K1172A (Drosophila melanogaster (Oregon-R)) (UniProt M9PH32); assay: MST; details: MST: 20 mM Hepes/KOH pH 7.5, 100 mM NaCl, 5 mM MgCl2, 5 mM DTT, 0.0125% Tween 20, 25 C (Brat: 20 mM Tris 8.0, 150 mM NaCl, 1 mM MgCl2, 5 mM DTT, 0.0125% Tween 20). EMSA; recombinant protein; residues 908-1206; protein details: GST removed by TEV; label: Cy5
T5 sequence (looked up): T1 sequence (looked up) with K265A

[6] = target: T6, Mei-P26 NHL R1017A (Drosophila melanogaster (Oregon-R)) (UniProt M9PH32); assay: MST; details: MST: 20 mM Hepes/KOH pH 7.5, 100 mM NaCl, 5 mM MgCl2, 5 mM DTT, 0.0125% Tween 20, 25 C (Brat: 20 mM Tris 8.0, 150 mM NaCl, 1 mM MgCl2, 5 mM DTT, 0.0125% Tween 20). EMSA, recombinant protein, residues 908-1206, protein details: GST removed by TEV
T6 sequence (looked up): T1 sequence (looked up) with R110A

[7] = target: T7, Mei-P26 NHL RKR R1150A,K1172A,R1175A (Drosophila melanogaster (Oregon-R)) (UniProt M9PH32); assay: MST; details: MST: 20 mM Hepes/KOH pH 7.5, 100 mM NaCl, 5 mM MgCl2, 5 mM DTT, 0.0125% Tween 20, 25 C (Brat: 20 mM Tris 8.0, 150 mM NaCl, 1 mM MgCl2, 5 mM DTT, 0.0125% Tween 20). EMSA; recombinant protein; residues 908-1206; protein details: GST removed by TEV; label: Cy5 (MST), 32P (EMSA)
T7 sequence (looked up): T1 sequence (looked up) with R243A, K265A, R268A

[8] = target: T1, Mei-P26 NHL wt (Drosophila melanogaster (Oregon-R)); assay: EMSA; details: recombinant protein; residues 908-1206; protein details: GST removed by TEV; label: 32P
[9] = target: T7, Mei-P26 NHL RKR R1150A,K1172A,R1175A (Drosophila melanogaster (Oregon-R)); assay: EMSA; details: recombinant protein; residues 908-1206; protein details: GST removed by TEV; label: 32P

ACAUUUU [SEQ3Inv]: binds more weakly [1].
UUGUUAA [BRAT1]: binds more weakly [1].
UUGUUUU [SEQ13G]: binds more weakly [1].
In the case of UUUACAA [SEQ4], the Kd [1] is reported as greater than 3 µM.
UUUGUUU [SEQ14G]: binds more weakly [1].
UUUUACA [SEQ3] was tested, and the binding result [2] was “binds more weakly”, the Kd [3] was greater than 5 µM and the binding result [4] was “binds more weakly”. UUUUACA [SEQ3]: binds more weakly [5]; binds more weakly ([6]; label: Cy5).
UUUUCAC: binds more weakly [1].
UUUUUACA [SEQ35U]: binds [1].
UUUUUUUACA [SEQ37U]: binds [1].
UUUUUUUUU [U9]: no binding [7]; binds more weakly ([6]; label: Cy5 (MST), 32P (EMSA)).
UUUUUUUUUUUUUUUU [U16]: binds [8]; no binding [9].
